In PMC12092681:
No constants are given. Whether binding was seen depends on the method and setting. For some assays here: Binding seen in cells or lysates may run through a third protein. Some entries that bind do so weakly or less than the wild type. For some assays here: Sequences can lack the tags named with a protein. Values belong to the molecule of their own block, whether it stands above or below them.

Sequences of proteins named here, by UniProt entry; tags and fusion partners are left off. Residues count along the entry.
UniProt Q04721, residues 26-2471: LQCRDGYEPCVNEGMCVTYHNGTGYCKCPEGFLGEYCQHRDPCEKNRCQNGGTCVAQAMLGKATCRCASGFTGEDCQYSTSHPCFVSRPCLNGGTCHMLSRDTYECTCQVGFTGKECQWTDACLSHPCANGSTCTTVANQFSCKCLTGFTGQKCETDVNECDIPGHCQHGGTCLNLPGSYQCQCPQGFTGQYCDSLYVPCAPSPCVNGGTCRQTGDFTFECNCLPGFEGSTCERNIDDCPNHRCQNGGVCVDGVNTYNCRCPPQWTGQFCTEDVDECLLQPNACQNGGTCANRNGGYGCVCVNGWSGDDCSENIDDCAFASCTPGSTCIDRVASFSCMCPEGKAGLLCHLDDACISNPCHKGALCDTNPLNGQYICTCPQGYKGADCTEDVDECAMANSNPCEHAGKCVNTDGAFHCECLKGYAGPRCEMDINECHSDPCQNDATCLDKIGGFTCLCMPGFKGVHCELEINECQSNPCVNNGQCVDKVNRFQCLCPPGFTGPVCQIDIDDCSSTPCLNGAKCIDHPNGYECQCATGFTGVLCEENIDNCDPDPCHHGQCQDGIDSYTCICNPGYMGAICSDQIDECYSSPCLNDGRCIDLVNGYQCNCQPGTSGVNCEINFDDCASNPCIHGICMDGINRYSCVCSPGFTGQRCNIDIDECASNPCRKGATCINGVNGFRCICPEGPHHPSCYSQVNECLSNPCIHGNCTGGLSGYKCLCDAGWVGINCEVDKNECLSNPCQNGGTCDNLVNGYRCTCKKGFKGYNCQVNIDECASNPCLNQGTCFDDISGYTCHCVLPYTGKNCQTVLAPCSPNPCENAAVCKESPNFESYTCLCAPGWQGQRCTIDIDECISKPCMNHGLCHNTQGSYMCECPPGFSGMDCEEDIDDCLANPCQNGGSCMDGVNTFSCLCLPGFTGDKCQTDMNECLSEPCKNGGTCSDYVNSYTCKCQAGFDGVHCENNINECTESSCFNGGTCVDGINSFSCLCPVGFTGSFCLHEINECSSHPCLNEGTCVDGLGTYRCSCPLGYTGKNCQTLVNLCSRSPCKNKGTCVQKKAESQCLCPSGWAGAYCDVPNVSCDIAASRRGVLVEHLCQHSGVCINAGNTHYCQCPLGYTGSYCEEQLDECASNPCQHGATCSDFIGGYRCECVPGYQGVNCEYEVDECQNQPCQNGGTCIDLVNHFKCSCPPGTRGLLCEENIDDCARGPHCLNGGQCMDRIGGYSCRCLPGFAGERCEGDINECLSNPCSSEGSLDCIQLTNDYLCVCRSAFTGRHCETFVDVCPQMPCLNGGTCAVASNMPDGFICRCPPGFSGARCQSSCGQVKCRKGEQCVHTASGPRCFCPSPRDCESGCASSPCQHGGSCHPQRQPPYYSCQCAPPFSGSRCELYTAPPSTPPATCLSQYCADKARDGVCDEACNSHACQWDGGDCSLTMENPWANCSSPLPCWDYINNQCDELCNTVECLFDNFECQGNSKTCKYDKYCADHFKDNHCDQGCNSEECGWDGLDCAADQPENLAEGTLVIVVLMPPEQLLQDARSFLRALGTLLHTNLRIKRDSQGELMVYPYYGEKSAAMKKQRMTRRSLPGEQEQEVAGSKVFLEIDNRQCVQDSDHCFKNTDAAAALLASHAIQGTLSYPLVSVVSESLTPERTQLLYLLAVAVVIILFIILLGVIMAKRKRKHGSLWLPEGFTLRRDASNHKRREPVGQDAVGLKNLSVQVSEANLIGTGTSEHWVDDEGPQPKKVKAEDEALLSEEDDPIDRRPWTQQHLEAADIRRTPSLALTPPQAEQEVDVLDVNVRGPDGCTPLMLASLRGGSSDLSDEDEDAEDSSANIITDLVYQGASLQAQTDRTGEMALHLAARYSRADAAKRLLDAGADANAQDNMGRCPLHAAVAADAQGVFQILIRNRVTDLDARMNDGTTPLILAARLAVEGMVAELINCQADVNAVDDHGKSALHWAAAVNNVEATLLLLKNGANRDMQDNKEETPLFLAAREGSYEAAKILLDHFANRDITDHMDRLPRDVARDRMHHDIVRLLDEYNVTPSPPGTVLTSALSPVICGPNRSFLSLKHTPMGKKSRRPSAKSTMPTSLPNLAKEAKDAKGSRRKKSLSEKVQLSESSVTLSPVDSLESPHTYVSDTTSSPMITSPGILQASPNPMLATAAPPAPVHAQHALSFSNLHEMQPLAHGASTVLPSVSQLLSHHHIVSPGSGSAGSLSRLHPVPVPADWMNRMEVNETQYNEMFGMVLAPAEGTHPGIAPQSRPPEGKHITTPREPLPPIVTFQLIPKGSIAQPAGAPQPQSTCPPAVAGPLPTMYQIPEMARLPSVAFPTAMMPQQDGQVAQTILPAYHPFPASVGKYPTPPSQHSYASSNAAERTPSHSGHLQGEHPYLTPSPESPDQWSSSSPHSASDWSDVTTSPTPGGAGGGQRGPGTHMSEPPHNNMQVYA
UniProt Q99873: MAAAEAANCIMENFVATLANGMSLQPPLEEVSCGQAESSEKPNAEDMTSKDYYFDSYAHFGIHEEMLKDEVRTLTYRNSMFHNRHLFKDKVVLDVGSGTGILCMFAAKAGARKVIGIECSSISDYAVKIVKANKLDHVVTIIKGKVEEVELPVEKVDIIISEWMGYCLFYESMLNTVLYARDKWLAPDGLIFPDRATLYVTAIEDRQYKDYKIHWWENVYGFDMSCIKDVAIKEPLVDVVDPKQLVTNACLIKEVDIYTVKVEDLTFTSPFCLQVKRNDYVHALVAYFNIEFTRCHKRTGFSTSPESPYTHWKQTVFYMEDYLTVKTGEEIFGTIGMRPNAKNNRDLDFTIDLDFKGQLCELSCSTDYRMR

Columns and labels:
[1] = molecular target: T1, GST-tagged NUSAP1 wild type (GST-NUSAP1-WT) (human) (UniProt Q9BXS6); assay: pull-down; GST-NUSAP1 on glutathione-Sepharose beads incubated with purified His-tagged prey at 4 °C for 4 h in 20 mM Tris-HCl pH 7.5, 150 mM NaCl, 0.5% Triton X-100; washed with 300 mM NaCl; blots with anti-GST and anti-His; both purified
T1 sequence: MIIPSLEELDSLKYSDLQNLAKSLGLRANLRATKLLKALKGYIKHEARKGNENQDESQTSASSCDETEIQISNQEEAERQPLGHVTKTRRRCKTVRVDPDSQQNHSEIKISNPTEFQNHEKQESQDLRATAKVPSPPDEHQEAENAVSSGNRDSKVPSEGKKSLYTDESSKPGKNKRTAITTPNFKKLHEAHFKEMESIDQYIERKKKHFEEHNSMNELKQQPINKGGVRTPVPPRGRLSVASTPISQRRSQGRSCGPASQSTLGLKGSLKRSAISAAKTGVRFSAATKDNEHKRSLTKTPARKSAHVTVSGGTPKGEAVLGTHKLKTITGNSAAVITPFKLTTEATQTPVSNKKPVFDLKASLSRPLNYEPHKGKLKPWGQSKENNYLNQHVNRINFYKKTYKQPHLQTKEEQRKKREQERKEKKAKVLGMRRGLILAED

[2] = molecular target: T2, NUSAP1, endogenous in 5-FU-resistant gastric cancer cells (human (endogenous in BGC-823-5-FU-R and SGC-7901-5-FU-R)) (UniProt Q9BXS6); assay: proximity ligation; fixed and permeabilised BGC-823-5-FU-R and SGC-7901-5-FU-R cells on coverslips, PLA probes, confocal microscopy; signal in the cytoplasm
T2 sequence: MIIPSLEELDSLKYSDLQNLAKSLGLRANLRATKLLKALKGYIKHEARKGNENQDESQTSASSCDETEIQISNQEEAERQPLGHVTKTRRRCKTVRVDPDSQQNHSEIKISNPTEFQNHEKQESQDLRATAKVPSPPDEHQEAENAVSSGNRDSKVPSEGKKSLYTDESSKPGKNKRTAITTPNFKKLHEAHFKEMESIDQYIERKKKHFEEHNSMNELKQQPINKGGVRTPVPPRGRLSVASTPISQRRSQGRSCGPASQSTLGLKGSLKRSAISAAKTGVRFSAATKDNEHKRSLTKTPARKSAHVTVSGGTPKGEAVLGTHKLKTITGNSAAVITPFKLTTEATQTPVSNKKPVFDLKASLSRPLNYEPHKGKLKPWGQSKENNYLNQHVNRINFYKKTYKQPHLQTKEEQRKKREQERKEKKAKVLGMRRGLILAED

[3] = molecular target: T2, NUSAP1, endogenous in 5-FU-resistant gastric cancer cells (human (endogenous in BGC-823-5-FU-R and SGC-7901-5-FU-R)); assay: co-IP; endogenous proteins in BGC-823-5-FU-R and SGC-7901-5-FU-R cells; precipitation with anti-NUSAP1, anti-PRMT1, anti-PRMT5 or anti-Notch2 antibody, Western blotting
[4] = molecular target: T3, MYC-tagged NUSAP1 (nucleolar and spindle-associated protein 1), wild type, in HEK293FT cells (human) (UniProt Q9BXS6); assay: co-IP; HEK293FT cells expressing MYC-NUSAP1; MYC-tagged NUSAP1 immunoprecipitated, PRMT1 and PRMT5 detected by Western blotting
T3 sequence: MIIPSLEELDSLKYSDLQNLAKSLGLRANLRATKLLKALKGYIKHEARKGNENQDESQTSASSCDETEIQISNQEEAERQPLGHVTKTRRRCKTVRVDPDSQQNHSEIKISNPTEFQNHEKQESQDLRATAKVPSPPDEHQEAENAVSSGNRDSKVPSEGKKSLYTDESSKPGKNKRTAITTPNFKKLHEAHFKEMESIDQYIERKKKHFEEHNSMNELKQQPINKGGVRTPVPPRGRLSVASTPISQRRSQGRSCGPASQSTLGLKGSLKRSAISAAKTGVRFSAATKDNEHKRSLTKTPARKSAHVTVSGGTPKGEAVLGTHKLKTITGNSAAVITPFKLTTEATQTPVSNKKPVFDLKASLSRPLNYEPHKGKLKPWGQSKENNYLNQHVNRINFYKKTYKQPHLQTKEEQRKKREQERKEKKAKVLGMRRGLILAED

[5] = molecular target: T4, MYC-tagged NUSAP1, wild type, in BGC-823-5-FU-R and SGC-7901-5-FU-R cells (human) (UniProt Q9BXS6); assay: proximity ligation; fixed and permeabilised BGC-823-5-FU-R and SGC-7901-5-FU-R cells on coverslips, PLA probes, confocal microscopy; signal in the cytoplasm
T4 sequence: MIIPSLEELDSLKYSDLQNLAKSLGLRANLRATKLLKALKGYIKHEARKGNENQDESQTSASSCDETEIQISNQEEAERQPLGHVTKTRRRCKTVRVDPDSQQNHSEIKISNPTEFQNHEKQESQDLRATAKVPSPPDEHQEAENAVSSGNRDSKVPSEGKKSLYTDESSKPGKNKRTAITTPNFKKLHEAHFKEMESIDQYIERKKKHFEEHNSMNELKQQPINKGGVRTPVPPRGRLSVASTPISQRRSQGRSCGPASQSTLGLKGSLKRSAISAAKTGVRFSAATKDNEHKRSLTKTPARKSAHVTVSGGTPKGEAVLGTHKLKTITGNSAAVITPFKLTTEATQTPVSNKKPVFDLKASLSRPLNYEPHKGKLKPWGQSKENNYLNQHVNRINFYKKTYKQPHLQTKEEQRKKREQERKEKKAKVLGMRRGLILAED

[6] = molecular target: T4, MYC-tagged NUSAP1, wild type, in BGC-823-5-FU-R and SGC-7901-5-FU-R cells (human); assay: co-IP; BGC-823-5-FU-R and SGC-7901-5-FU-R cells overexpressing MYC-NUSAP1 (with Flag-tagged N2ICD fragments in Fig. 6G); precipitation with anti-MYC antibody, Western blotting
[7] = molecular target: Notch2, endogenous in 5-FU-resistant gastric cancer cells (human (endogenous in BGC-823-5-FU-R and SGC-7901-5-FU-R)) (UniProt Q04721); assay: co-IP; endogenous proteins in BGC-823-5-FU-R and SGC-7901-5-FU-R cells; precipitation with anti-NUSAP1, anti-PRMT1, anti-PRMT5 or anti-Notch2 antibody, Western blotting
[8] = molecular target: PRMT1, endogenous in 5-FU-resistant gastric cancer cells (human (endogenous in BGC-823-5-FU-R and SGC-7901-5-FU-R)) (UniProt Q99873); assay: as above

Molecule: His-tagged PRMT1 (from UniProt Q99873 1-371) (enzyme)
binding [1]: binds

Molecule: Notch2, endogenous in 5-FU-resistant gastric cancer cells (from UniProt Q04721 26-2471) (receptor)
binding [5]: binds | binding [6]: binds

Results, then the molecule that gave them:

binding [2]: binds | binding [3]: binds
Molecule: PRMT1, endogenous in 5-FU-resistant gastric cancer cells (from UniProt Q99873 1-371) (enzyme)

binding [4]: binds
Molecule: PRMT1, endogenous in HEK293FT cells (from UniProt Q99873 1-371) (enzyme)

binding [7]: binds | binding [8]: binds
B1: NUSAP1, endogenous in 5-FU-resistant gastric cancer cells (protein, UniProt Q9BXS6 1-441)
chain: MIIPSLEELDSLKYSDLQNLAKSLGLRANLRATKLLKALKGYIKHEARKGNENQDESQTSASSCDETEIQISNQEEAERQPLGHVTKTRRRCKTVRVDPDSQQNHSEIKISNPTEFQNHEKQESQDLRATAKVPSPPDEHQEAENAVSSGNRDSKVPSEGKKSLYTDESSKPGKNKRTAITTPNFKKLHEAHFKEMESIDQYIERKKKHFEEHNSMNELKQQPINKGGVRTPVPPRGRLSVASTPISQRRSQGRSCGPASQSTLGLKGSLKRSAISAAKTGVRFSAATKDNEHKRSLTKTPARKSAHVTVSGGTPKGEAVLGTHKLKTITGNSAAVITPFKLTTEATQTPVSNKKPVFDLKASLSRPLNYEPHKGKLKPWGQSKENNYLNQHVNRINFYKKTYKQPHLQTKEEQRKKREQERKEKKAKVLGMRRGLILAED
